{
  "source": "patent US9526785B2",
  "about": "“Pharmaceuticals for oral delivery” (Enteris BioPharma, Inc., priority 2013, dated 2016)",
  "assay": "Tigecycline plasma PK and % F after PO enteric-coated capsule in dogs",
  "assay_type": "in vivo, Beagle dogs",
  "settings": "SC430, individual dogs",
  "experimental": "Adult beagle dogs weighing approximately 9 to 15 kg were used in the study. […] Room temperature was set to be maintained between approximately 20±5° C. Relative humidity was monitored but not controlled.\nTEKLAD™ Certified Canine Diet was provided once daily in amounts (˜400 grams) appropriate for the size and age of the animals. Tap water was available ad libitum via automatic watering device or water bowls.\nOral dosing of enteric-coated capsules was accomplished by administering them to the back of the dog's mouth, followed by a chase of 5 mL water to ensure swallowing.\nWater was provided ad libitum. […] Subsequently, each group of animals was dosed based on the protocol, i.e. either IV, or PO by capsule.\nMinocycline (VWR international) was used as an internal standard. Sample processing/clean-up of plasma samples was carried out offline by protein precipitation with acidified acetonitrile using 0.5% trifluoroacetic acid (TFA).\nThe HPLC system consisted of Shimadzu SIL-HTc HPLC system equipped with dual Shimadzu LC-10ADvp isopumps, a Shimadzu CTO-10ASvp column temperature controller and a Shimadzu SPD-10Avp variable wavelength detector. […] Mobile phase A consisted of 23 mM phosphate buffer pH 2.5 with 4 mM 1-octanesulfonic acid, while mobile phase B consisting of 90% acetonitrile, 10% water, with 2 mM 1-octanesulfonic acid. […] The total runtime was 18 minutes per sample. The mobile phase flow rate was 1.2 mL/min. Detection was performed using the SPD-10Avp variable wavelength detector set at 350 nm, with a sensitivity of 0.001 aufs.\nThe samples were then centrifuged under refrigeration at 13 k rpm for 5 minutes. The supernatant was taken and the liquid removed to dryness under nitrogen in a turbovap. The dried extract was reconstituted in 60 μL of mobile phase A and the suspension was further centrifuged at 5 k rpm for 5 minutes to pellet any insoluble matter. The resulting supernatant was then injected onto the LC.\nThe unknown concentration in dog plasma samples was determined by interpolation of the peak area ratios of analyte:internal standard versus the ratio of their nominal concentrations into the regression line obtained from calibration standards spiked in pooled dog plasma. No regression weighting was used for the calculations. […] The calibration curve covered the range of 0.05 μg/mL to 5 μg/mL. […]\nThe capsules were enterically coated using a standard preclinical protocol to 10% weight gain. Two studies were conducted.",
  "note": "Several values for one entry are separate records, joined by “and”; a condition that tells them apart may be missing. Equal entries are not always repeated. This continues a long series; more values of the same kind are listed elsewhere.",
  "data": [
    {"smiles": "CN(C)c1cc(NC(=O)CNC(C)(C)C)c(O)c2c1C[C@H]1C[C@H]3[C@H](N(C)C)C(O)=C(C(N)=O)C(=O)[C@@]3(O)C(O)=C1C2=O", "note": "[Tigecycline]", "values": [
      {"measurement": "Tigecycline Plasma Concentration", "setting": "Time (min) 1.0, PO 45 mg enteric-coated capsule with 500 mg CA and 100 mg LLC", "value": "133.63 ng/mL and 127.65 ng/mL and 0.00 ng/mL (2×) and 20.73 ng/mL"},
      {"measurement": "Tigecycline Plasma Concentration", "setting": "Time (min) 1.3, PO 30 mg enteric-coated capsule with 500 mg CA and 100 mg LLC", "value": "0.00 ng/mL (3×) and 182.24 ng/mL and 73.60 ng/mL"},
      {"measurement": "Tigecycline Plasma Concentration", "setting": "Time (min) 1.3, PO 45 mg enteric-coated capsule with 500 mg CA and 100 mg LLC", "value": "153.06 ng/mL and 78.69 ng/mL and 0.00 ng/mL (2×) and 59.87 ng/mL"},
      {"measurement": "Tigecycline Plasma Concentration", "setting": "Time (min) 1.7, PO 30 mg enteric-coated capsule with 500 mg CA and 100 mg LLC", "value": "91.58 ng/mL and 145.17 ng/mL and 33.81 ng/mL and 0.00 ng/mL and 47.35 ng/mL"},
      {"measurement": "Tigecycline Plasma Concentration", "setting": "Time (min) 1.7, PO 45 mg enteric-coated capsule with 500 mg CA and 100 mg LLC", "value": "138.33 ng/mL and 46.66 ng/mL and 0.00 ng/mL and 157.62 ng/mL and 163.14 ng/mL"},
      {"measurement": "Tigecycline Plasma Concentration", "setting": "Time (min) 2.0, PO 30 mg enteric-coated capsule with 500 mg CA and 100 mg LLC", "value": "66.04 ng/mL and 127.57 ng/mL and 87.39 ng/mL and 53.01 ng/mL"},
      {"measurement": "Tigecycline Plasma Concentration", "setting": "Time (min) 2.0, PO 45 mg enteric-coated capsule with 500 mg CA and 100 mg LLC", "value": "116.10 ng/mL and 43.10 ng/mL and 44.20 ng/mL and 149.31 ng/mL and 367.01 ng/mL"},
      {"measurement": "Tigecycline Plasma Concentration", "setting": "Time (min) 2.3, PO 30 mg enteric-coated capsule with 500 mg CA and 100 mg LLC", "value": "76.54 ng/mL and 118.71 ng/mL and 120.08 ng/mL and 0.00 ng/mL and 45.11 ng/mL"},
      {"measurement": "Tigecycline Plasma Concentration", "setting": "Time (min) 2.3, PO 45 mg enteric-coated capsule with 500 mg CA and 100 mg LLC", "value": "87.32 ng/mL and 39.82 ng/mL and 79.71 ng/mL and 114.76 ng/mL and 216.56 ng/mL"},
      {"measurement": "Tigecycline Plasma Concentration", "setting": "Time (min) 2.7, PO 30 mg enteric-coated capsule with 500 mg CA and 100 mg LLC", "value": "55.33 ng/mL and 107.93 ng/mL and 87.68 ng/mL and 0.00 ng/mL and 44.38 ng/mL"},
      {"measurement": "Tigecycline Plasma Concentration", "setting": "Time (min) 2.7, PO 45 mg enteric-coated capsule with 500 mg CA and 100 mg LLC", "value": "78.26 ng/mL and 33.22 ng/mL and 79.21 ng/mL and 102.49 ng/mL and 199.64 ng/mL"},
      {"measurement": "Tigecycline Plasma Concentration", "setting": "Time (min) 3.0, PO 30 mg enteric-coated capsule with 500 mg CA and 100 mg LLC", "value": "44.24 ng/mL and 96.41 ng/mL and 76.21 ng/mL and 0.00 ng/mL and 32.59 ng/mL"},
      {"measurement": "Tigecycline Plasma Concentration", "setting": "Time (min) 3.0, PO 45 mg enteric-coated capsule with 500 mg CA and 100 mg LLC", "value": "74.06 ng/mL and 31.63 ng/mL and 62.12 ng/mL and 98.25 ng/mL and 116.52 ng/mL"},
      {"measurement": "Tigecycline Plasma Concentration", "setting": "Time (min) 3.3, PO 30 mg enteric-coated capsule with 500 mg CA and 100 mg LLC", "value": "42.97 ng/mL and 87.87 ng/mL and 48.94 ng/mL and 0.00 ng/mL and 32.16 ng/mL"},
      {"measurement": "Tigecycline Plasma Concentration", "setting": "Time (min) 3.3, PO 45 mg enteric-coated capsule with 500 mg CA and 100 mg LLC", "value": "69.50 ng/mL and 33.98 ng/mL and 49.17 ng/mL and 63.91 ng/mL and 126.80 ng/mL"},
      {"measurement": "Tigecycline Plasma Concentration", "setting": "Time (min) 3.7, PO 30 mg enteric-coated capsule with 500 mg CA and 100 mg LLC", "value": "71.18 ng/mL and 50.58 ng/mL and 0.00 ng/mL"},
      {"measurement": "Tigecycline Plasma Concentration", "setting": "Time (min) 3.7, PO 45 mg enteric-coated capsule with 500 mg CA and 100 mg LLC", "value": "62.36 ng/mL and 33.14 ng/mL and 38.96 ng/mL and 55.89 ng/mL and 119.77 ng/mL"},
      {"measurement": "Tigecycline Plasma Concentration", "setting": "Time (min) 4.0, PO 30 mg enteric-coated capsule with 500 mg CA and 100 mg LLC", "value": "33.78 ng/mL and 65.95 ng/mL and 48.33 ng/mL and 0.00 ng/mL and 35.01 ng/mL"},
      {"measurement": "Tigecycline Plasma Concentration", "setting": "Time (min) 4.0, PO 45 mg enteric-coated capsule with 500 mg CA and 100 mg LLC", "value": "54.31 ng/mL and 21.63 ng/mL and 32.14 ng/mL and 46.68 ng/mL and 103.81 ng/mL"},
      {"measurement": "Tigecycline Plasma Concentration", "setting": "Time (min) 4.5, PO 30 mg enteric-coated capsule with 500 mg CA and 100 mg LLC", "value": "34.53 ng/mL and 61.09 ng/mL and 38.99 ng/mL and 0.00 ng/mL and 33.07 ng/mL"},
      {"measurement": "Tigecycline Plasma Concentration", "setting": "Time (min) 4.5, PO 45 mg enteric-coated capsule with 500 mg CA and 100 mg LLC", "value": "58.85 ng/mL and 16.87 ng/mL and 21.77 ng/mL and 47.61 ng/mL and 99.47 ng/mL"},
      {"measurement": "Tigecycline Plasma Concentration", "setting": "Time (min) 5.0, PO 30 mg enteric-coated capsule with 500 mg CA and 100 mg LLC", "value": "33.82 ng/mL and 63.28 ng/mL and 34.27 ng/mL and 0.00 ng/mL and 27.47 ng/mL"},
      {"measurement": "Tigecycline Plasma Concentration", "setting": "Time (min) 5.0, PO 45 mg enteric-coated capsule with 500 mg CA and 100 mg LLC", "value": "48.38 ng/mL and 20.56 ng/mL and 33.56 ng/mL and 45.61 ng/mL and 104.91 ng/mL"},
      {"measurement": "Tigecycline Plasma Concentration", "setting": "Time (min) 5.5, PO 30 mg enteric-coated capsule with 500 mg CA and 100 mg LLC", "value": "59.44 ng/mL and 34.85 ng/mL and 36.11 ng/mL and 21.10 ng/mL"},
      {"measurement": "Tigecycline Plasma Concentration", "setting": "Time (min) 5.5, PO 45 mg enteric-coated capsule with 500 mg CA and 100 mg LLC", "value": "44.74 ng/mL and 19.45 ng/mL and 21.25 ng/mL and 50.62 ng/mL and 76.57 ng/mL"},
      {"measurement": "Tigecycline Plasma Concentration", "setting": "Time (min) 6.0, PO 30 mg enteric-coated capsule with 500 mg CA and 100 mg LLC", "value": "0.00 ng/mL and 28.57 ng/mL and 36.53 ng/mL and 19.76 ng/mL"},
      {"measurement": "Tigecycline Plasma Concentration", "setting": "Time (min) 6.0, PO 45 mg enteric-coated capsule with 500 mg CA and 100 mg LLC", "value": "36.76 ng/mL and 13.66 ng/mL and 13.38 ng/mL and 34.52 ng/mL and 77.87 ng/mL"},
      {"measurement": "Tigecycline Plasma Concentration", "setting": "Time (min) 8.0, PO 30 mg enteric-coated capsule with 500 mg CA and 100 mg LLC", "value": "0.00 ng/mL (3×) and 18.56 ng/mL and 17.77 ng/mL"},
      {"measurement": "Tigecycline Plasma Concentration", "setting": "Time (min) 8.0, PO 45 mg enteric-coated capsule with 500 mg CA and 100 mg LLC", "value": "27.89 ng/mL and 10.52 ng/mL and 6.37 ng/mL and 20.09 ng/mL and 49.82 ng/mL"},
      {"measurement": "Tigecycline Plasma Concentration", "setting": "Time (min) 10.0, PO 30 mg enteric-coated capsule with 500 mg CA and 100 mg LLC", "value": "0.00 ng/mL (4×) and 12.91 ng/mL"},
      {"measurement": "Tigecycline Plasma Concentration", "setting": "Time (min) 10.0, PO 45 mg enteric-coated capsule with 500 mg CA and 100 mg LLC", "value": "22.19 ng/mL and 0.00 ng/mL and 4.77 ng/mL and 12.09 ng/mL and 44.75 ng/mL"},
      {"measurement": "Tigecycline Plasma Concentration", "setting": "Time (min) 24.0, PO 30 mg enteric-coated capsule with 500 mg CA and 100 mg LLC", "value": 0.00, "unit": "ng/mL"},
      {"measurement": "Tigecycline Plasma Concentration", "setting": "Time (min) 24.0, PO 45 mg enteric-coated capsule with 500 mg CA and 100 mg LLC", "value": 0.00, "unit": "ng/mL"}
    ]}
  ]
}
